Data reported in paper PMC10345090.

Protein sequences, listed by entry. Tags and fused reporters are not part of them. Lines headed by an entry give the natural chain unless they say otherwise; changes in a name come on top.
UniProt P16356: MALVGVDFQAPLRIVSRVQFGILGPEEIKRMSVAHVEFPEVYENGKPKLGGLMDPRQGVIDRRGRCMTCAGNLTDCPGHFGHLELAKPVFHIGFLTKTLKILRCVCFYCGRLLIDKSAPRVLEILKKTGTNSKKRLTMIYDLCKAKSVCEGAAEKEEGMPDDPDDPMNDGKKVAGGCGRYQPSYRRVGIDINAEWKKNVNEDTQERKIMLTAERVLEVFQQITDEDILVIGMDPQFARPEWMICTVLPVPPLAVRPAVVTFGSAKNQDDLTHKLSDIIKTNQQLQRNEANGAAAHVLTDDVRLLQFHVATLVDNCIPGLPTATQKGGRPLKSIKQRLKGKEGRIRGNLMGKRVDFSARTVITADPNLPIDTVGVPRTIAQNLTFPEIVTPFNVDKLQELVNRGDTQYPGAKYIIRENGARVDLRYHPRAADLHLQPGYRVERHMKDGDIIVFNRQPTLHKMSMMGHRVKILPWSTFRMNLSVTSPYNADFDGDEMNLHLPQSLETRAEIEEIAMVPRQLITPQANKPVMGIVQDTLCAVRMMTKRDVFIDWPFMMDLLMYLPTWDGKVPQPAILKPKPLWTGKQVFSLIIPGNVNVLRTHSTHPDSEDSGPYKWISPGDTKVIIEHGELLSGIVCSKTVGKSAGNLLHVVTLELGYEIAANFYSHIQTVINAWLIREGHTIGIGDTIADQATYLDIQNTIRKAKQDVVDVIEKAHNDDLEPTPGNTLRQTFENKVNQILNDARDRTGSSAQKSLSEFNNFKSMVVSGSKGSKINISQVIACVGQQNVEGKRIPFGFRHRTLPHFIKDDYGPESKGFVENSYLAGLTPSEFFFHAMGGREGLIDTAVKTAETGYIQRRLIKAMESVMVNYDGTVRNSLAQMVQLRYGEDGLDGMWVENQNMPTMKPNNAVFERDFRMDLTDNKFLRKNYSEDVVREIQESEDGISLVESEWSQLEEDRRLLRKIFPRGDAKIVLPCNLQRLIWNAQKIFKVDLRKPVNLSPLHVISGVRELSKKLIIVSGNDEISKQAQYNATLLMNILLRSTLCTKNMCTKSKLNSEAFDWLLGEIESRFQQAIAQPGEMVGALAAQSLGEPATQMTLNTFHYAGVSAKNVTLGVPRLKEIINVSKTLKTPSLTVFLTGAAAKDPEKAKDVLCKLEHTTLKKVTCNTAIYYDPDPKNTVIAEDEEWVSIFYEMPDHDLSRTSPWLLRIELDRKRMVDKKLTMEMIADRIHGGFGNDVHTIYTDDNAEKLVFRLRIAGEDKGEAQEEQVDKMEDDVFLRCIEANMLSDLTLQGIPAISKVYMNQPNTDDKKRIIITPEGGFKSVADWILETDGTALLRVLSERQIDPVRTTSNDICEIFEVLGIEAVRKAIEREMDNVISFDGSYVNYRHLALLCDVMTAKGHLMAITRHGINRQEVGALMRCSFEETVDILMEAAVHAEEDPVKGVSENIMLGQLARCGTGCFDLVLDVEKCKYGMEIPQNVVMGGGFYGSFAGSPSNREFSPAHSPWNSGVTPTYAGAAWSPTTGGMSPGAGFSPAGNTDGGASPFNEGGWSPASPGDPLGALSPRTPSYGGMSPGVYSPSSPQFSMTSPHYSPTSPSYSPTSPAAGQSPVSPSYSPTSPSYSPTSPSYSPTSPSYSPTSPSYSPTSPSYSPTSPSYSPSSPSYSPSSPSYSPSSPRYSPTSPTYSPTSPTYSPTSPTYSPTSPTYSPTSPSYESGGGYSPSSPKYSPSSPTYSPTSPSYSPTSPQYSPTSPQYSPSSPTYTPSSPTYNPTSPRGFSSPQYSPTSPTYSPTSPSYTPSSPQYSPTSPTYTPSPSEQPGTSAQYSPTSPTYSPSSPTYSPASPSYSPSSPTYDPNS
UniProt Q10578: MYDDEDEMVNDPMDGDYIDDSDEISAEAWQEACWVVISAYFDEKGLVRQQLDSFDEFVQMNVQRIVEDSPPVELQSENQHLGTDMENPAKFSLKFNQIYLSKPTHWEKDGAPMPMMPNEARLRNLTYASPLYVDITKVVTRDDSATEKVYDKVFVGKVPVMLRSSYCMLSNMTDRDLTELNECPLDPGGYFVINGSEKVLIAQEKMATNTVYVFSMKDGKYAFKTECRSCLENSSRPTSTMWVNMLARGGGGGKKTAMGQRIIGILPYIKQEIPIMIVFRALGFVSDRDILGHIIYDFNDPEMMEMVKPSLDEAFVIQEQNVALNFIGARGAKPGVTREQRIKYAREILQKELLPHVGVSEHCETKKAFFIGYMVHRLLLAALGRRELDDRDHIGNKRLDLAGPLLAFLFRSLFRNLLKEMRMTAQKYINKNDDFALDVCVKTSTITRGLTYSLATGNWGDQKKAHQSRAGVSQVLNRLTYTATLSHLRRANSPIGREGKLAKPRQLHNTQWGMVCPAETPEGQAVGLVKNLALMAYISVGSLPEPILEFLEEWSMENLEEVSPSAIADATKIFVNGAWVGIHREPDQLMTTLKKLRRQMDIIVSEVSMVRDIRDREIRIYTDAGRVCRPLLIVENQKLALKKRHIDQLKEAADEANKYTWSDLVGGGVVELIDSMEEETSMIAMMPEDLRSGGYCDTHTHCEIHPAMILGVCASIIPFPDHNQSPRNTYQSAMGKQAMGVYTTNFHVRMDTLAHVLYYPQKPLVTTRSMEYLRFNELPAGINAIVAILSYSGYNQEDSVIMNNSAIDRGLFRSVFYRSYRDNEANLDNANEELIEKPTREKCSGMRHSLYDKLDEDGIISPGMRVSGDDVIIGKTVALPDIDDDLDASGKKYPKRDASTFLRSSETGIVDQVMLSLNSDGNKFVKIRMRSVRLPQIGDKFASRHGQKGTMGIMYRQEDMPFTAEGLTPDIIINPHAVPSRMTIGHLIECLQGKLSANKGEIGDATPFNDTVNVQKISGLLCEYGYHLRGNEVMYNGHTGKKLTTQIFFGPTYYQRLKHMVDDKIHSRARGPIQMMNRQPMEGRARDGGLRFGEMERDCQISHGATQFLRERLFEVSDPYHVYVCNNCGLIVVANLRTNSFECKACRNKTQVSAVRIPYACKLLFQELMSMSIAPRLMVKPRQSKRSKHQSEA
UniProt Q9GYM9: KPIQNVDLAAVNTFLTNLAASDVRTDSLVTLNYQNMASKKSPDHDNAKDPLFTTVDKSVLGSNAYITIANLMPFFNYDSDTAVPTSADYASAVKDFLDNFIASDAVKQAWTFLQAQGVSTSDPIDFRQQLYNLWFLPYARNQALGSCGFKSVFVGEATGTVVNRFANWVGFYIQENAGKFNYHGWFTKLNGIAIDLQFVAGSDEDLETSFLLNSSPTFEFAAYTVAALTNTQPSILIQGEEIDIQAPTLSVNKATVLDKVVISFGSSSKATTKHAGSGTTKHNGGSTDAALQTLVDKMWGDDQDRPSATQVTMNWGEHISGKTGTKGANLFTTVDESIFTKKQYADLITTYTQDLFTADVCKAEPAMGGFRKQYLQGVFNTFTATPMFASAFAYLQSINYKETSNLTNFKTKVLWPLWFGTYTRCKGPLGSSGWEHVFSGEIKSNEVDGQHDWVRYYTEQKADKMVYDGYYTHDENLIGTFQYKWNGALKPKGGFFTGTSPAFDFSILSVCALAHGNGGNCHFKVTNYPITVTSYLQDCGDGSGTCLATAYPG

Legend:
Experiment in all cases: co-IP; day 1 adult worm lysate in NP-40 buffer (150 mM NaCl, 50 mM Tris HCl pH 8.0, 0.1% NP-40), without RNase A (RNase inhibitor); IP with anti-Pol II 8WG16 (AMA-1), anti-POLR2B, anti-Histone H3 or anti-GFP, Dynabeads Protein A; Western blot
[1] = biological target: AMA-1, the Pol II subunit A (C. elegans (endogenous in worms)) (UniProt P16356)
[2] = biological target: RPB-2 (Pol II subunit B) (C. elegans (endogenous in worms)) (UniProt Q10578)
[3] = biological target: ENDU-2::EGFP (C. elegans) (UniProt Q9GYM9)

| binding [1] | binding [2] | binding [3] | Substance |
| --- | --- | --- | --- |
| binds | binds | – | ENDU-2::EGFP (from UniProt Q9GYM9) |
| – | – | binds | AMA-1, the Pol II subunit A (from UniProt P16356 1-1856) |

Results are given in words; binding and its absence hold for the method and conditions named. In cells and extracts the contact can be indirect. A result given as binding can be weak or reduced; the word gives no strength.
